{"source": "paper PMC4686834", "about": "(Nature Communications, 2015)", "assay": "peptide synthesis", "details": "whole synthesis, 214 nm, peak area, TFA salt", "note": "Some peptides are written in HELM: one residue between dots, names in brackets for other building blocks, links after the first $.", "data": [{"substance": "PEPTIDE1{E.L.V.D.N.A.V.G.G.D.L.S.K.Q.M.E.E.E.A.V.R.L.F.I.E.W.L.K.N.G.G.P.S.S.G.A.P.P.P.S.[am]}$$$$V2.0", "values": [{"measurement": "final HPLC purity", "result": 97.7, "unit": "%"}]}]}
